Source: patent publication US12605468B2, “Oxazine-based fluorophore compounds for nerve-specific imaging” (Oregon Health & Science University, priority 2020, dated 2026)
For at least one compound, name, drawing or mass did not settle the structure.

Assay: Absorption and fluorescence emission spectra of oxazine derivatives in PBS
Type: physicochemical

c1cc2nc3ccc(=[N+]4CCC4)cc-3oc2cc1N1CCC1 [LGW14-53, 1-(7-(azetidin-1-yl)-3H-phenoxazin-3-ylidene)azetidin-1-ium]
Brightness: 15.77 M⁻¹ cm⁻¹ | FWHMabs: 73 nm | FWHMem: 41 nm | Stokes Shift: 22 nm | Φ: 0.22 | ε: 70,400 M^−1 cm^−1 | λabs: 644 nm | λem: 666 nm
